This is one part of the list.
What was measured:
Experiment in all cases: log2 fold change, soluble protein after heating vs DMSO (PISA); higher = thermal stabilisation; K562 lysate, 10 uM; active = over 0.2 and 3.5 SD of the protein, either way, in both replicates (recomputed)
alvocidib = compound: CN1CC[C@H](c2c(O)cc(O)c3c(=O)cc(-c4ccccc4Cl)oc23)[C@H](O)C1 [alvocidib]
Summary of the method: (§1)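 Following dounce homogenisation of K562 pellets in PBS pH 7.4 with 1 mM MgCl2, crude extract at 1 mg/mL protein was incubated for 30 min with 10 μM compound. Aliquots were then heated for 3 min over 48°C-58°C and pooled, NP-40 was added to 0.5% at 4°C, and soluble protein was recovered as the supernatant at 21,000xg for 90 min. Channel-sum-equalised TMTpro 16plex LC-MS/MS quantified this protein. Each value, from duplicates, is a log-two fold change in thermal stability relative to solvent controls.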

By UniProt entry, the sequences of proteins in these tests, tags left out. Where a name states a change or a piece, a line headed by the entry shows the natural chain unless it says otherwise.
UniProt Q8IUZ5: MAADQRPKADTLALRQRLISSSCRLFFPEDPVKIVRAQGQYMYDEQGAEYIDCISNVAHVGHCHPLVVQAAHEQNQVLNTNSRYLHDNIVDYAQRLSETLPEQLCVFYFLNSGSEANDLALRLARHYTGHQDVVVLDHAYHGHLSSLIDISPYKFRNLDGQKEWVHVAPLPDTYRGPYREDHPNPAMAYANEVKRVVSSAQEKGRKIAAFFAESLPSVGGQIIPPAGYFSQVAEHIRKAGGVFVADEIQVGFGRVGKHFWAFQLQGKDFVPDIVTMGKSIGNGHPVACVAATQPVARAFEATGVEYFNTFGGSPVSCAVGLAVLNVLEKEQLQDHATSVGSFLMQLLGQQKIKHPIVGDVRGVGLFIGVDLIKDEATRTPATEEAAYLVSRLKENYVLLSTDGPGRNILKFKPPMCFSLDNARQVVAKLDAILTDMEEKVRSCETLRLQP
UniProt O75167: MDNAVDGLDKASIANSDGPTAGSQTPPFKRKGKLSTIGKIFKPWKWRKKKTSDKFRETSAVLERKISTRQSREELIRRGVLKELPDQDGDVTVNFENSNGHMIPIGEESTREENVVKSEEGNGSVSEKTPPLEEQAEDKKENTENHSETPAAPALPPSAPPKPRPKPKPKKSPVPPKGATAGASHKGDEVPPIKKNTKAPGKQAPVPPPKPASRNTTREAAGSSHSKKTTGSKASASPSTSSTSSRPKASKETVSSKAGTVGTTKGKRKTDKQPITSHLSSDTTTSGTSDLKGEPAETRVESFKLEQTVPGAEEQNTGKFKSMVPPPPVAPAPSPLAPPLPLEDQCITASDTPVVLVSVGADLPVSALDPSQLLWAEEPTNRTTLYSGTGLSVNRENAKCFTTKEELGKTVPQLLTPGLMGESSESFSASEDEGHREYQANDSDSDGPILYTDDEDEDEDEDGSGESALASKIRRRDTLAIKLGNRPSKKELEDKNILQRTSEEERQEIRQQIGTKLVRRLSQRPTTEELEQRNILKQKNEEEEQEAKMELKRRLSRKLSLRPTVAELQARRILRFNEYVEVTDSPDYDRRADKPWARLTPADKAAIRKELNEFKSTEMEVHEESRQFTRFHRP
UniProt Q6ZUJ8: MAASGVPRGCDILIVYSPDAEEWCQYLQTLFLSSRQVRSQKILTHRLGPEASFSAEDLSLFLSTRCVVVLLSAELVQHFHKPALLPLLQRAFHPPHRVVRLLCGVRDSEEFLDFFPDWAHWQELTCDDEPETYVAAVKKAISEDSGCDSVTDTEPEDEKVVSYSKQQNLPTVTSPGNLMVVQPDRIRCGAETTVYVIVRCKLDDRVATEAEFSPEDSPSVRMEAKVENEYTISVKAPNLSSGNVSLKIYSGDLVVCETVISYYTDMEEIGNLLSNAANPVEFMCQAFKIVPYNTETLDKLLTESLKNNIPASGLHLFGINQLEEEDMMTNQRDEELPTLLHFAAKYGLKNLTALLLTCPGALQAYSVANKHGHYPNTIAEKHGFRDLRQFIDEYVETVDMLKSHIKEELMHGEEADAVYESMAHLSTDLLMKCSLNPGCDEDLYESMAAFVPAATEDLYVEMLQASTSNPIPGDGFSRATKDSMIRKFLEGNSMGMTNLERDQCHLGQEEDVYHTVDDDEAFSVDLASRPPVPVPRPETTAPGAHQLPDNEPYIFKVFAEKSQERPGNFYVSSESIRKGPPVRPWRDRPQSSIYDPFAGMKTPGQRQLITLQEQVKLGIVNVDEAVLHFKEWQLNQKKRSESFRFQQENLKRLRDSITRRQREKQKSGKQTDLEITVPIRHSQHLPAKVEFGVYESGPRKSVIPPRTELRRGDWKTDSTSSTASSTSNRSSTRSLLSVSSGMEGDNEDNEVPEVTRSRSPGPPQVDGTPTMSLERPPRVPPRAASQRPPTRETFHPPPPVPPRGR
UniProt Q9H5I5: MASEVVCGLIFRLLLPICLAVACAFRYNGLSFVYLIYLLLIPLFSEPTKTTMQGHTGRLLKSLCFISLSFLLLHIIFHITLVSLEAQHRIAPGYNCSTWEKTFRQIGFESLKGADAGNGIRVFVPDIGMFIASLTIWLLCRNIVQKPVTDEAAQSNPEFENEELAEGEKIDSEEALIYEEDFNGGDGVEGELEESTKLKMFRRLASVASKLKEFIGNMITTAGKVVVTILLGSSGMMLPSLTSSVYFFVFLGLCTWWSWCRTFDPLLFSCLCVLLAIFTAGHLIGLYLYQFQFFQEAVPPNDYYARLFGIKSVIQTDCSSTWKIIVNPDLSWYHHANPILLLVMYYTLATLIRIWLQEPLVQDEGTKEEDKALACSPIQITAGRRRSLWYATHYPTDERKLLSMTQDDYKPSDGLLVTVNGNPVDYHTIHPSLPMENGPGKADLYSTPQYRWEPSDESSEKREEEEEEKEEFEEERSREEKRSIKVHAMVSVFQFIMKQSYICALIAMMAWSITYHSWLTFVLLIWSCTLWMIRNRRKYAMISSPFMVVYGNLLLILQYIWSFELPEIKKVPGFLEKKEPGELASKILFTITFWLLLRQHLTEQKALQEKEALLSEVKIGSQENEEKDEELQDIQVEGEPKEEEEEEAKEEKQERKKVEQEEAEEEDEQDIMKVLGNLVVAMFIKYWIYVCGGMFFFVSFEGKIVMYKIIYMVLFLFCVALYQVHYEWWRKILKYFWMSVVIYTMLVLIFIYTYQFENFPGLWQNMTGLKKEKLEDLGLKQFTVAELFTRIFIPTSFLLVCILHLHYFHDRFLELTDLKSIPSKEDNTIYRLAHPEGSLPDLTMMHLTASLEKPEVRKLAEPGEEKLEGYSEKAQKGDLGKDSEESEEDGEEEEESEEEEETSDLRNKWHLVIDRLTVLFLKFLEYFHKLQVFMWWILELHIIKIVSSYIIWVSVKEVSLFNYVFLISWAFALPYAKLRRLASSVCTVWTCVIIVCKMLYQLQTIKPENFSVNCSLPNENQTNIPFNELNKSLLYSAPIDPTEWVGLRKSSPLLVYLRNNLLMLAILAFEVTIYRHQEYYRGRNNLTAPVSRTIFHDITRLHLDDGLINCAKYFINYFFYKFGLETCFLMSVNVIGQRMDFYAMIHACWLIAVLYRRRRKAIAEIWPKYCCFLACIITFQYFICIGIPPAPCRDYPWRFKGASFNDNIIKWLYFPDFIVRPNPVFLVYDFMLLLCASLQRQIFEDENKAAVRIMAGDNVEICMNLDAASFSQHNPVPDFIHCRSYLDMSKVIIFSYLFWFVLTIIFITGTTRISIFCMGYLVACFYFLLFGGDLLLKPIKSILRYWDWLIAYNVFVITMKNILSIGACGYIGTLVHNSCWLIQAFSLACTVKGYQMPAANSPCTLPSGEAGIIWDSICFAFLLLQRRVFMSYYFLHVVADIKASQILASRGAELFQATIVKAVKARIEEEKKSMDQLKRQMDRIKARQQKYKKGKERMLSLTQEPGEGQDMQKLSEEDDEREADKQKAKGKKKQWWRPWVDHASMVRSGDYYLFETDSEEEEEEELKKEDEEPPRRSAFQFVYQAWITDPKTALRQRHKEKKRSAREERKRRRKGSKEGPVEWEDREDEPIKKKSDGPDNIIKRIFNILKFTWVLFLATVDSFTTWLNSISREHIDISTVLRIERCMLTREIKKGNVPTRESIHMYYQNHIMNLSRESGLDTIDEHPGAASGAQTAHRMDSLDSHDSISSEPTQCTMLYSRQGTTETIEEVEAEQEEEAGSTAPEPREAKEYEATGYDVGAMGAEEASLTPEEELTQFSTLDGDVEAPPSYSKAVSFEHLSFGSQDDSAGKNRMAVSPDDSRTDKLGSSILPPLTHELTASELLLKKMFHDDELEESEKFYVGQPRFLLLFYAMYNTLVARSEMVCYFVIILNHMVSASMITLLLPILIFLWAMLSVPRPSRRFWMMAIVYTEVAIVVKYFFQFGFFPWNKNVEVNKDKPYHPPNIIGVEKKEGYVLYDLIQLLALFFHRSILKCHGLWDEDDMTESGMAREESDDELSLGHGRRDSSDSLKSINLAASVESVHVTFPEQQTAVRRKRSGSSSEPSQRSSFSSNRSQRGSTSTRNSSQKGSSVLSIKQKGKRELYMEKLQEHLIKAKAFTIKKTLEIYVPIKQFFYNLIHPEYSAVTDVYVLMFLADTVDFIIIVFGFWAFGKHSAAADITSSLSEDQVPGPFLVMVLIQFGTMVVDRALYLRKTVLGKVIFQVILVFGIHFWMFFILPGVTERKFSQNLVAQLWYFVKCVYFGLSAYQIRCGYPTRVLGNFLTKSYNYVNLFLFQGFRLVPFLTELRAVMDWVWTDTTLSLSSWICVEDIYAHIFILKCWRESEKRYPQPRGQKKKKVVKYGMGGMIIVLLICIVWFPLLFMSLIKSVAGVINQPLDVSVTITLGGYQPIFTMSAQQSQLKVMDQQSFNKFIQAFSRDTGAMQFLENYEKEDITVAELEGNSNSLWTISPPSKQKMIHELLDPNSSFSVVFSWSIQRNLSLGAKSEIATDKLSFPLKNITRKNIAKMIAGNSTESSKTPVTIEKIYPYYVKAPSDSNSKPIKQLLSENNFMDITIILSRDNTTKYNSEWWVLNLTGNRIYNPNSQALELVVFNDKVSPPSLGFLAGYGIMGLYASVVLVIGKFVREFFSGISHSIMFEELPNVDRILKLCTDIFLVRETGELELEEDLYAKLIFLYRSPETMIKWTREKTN
UniProt Q9Y2B2: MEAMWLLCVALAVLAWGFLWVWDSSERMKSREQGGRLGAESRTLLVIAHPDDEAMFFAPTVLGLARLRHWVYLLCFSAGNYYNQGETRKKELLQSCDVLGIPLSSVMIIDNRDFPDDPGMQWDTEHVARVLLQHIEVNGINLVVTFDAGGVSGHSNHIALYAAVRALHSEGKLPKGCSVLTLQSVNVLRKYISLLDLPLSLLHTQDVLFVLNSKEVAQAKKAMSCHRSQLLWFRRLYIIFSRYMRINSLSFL
UniProt O00443: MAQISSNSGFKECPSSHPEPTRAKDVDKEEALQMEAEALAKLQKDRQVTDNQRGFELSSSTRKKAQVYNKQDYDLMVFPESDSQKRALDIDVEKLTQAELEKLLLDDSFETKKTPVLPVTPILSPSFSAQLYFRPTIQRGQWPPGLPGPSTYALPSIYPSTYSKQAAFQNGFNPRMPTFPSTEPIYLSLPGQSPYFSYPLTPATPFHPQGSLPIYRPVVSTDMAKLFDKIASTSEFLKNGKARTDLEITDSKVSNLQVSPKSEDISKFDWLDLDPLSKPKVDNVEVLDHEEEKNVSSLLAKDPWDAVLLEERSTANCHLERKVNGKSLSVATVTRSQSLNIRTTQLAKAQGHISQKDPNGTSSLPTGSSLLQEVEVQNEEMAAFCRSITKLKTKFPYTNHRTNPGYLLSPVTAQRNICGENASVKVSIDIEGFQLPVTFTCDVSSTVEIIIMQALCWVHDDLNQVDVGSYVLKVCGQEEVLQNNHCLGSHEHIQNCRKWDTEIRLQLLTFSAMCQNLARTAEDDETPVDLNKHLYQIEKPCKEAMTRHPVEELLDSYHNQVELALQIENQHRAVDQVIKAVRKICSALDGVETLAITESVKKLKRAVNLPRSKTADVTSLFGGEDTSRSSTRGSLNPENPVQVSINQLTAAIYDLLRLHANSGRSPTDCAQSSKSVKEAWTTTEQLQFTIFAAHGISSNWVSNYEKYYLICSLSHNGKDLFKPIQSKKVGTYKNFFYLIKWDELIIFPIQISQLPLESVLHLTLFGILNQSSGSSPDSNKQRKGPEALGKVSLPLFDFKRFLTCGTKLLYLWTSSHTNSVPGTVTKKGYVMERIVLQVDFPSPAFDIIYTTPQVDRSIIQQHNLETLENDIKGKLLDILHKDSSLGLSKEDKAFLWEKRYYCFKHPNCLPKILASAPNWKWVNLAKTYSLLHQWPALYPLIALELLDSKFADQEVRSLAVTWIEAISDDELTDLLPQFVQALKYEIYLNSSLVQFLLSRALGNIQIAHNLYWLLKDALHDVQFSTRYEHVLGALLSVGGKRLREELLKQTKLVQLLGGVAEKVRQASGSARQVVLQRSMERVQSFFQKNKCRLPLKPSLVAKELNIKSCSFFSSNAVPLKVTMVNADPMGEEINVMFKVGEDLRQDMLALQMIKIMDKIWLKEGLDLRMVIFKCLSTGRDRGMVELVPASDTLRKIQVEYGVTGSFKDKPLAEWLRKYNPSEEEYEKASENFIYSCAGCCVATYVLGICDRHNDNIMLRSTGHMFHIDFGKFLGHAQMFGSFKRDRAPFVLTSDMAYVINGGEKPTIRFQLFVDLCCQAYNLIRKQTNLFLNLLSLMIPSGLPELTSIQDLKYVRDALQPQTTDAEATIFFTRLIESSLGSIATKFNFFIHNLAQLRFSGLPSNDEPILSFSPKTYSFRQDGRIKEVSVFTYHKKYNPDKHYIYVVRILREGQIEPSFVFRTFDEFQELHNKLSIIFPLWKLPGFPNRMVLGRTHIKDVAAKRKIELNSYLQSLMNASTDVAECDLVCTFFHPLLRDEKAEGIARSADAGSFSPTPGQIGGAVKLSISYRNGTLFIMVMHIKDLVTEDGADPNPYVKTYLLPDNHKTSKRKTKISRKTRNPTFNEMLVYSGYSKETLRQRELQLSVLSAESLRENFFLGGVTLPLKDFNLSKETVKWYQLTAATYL

Tubastatin A = compound: CN1CCc2c(c3ccccc3n2Cc2ccc(C(=O)NO)cc2)C1 [Tubastatin A]
Summary of the method: as §1

[1] = compound: CNC(=O)C1=CC=CC=C1NC2=NC(=NC=C2Cl)NC3=C(C=C(C=C3)N4CCOCC4)OC
Summary of the method: as §1

defactinib = compound: CNC(=O)c1ccc(Nc2ncc(C(F)(F)F)c(NCc3nccnc3N(C)S(C)(=O)=O)n2)cc1 [defactinib]
Summary of the method: as §1

[2] = compound: CNc1nc(-c2ccc3c(N)n[nH]c3c2)cc(N2C[C@@H](C(=O)NC3CCCCC3)CC[C@H]2C)n1
Summary of the method: as §1

encorafenib = compound: COC(=O)N[C@@H](C)CNc1nccc(-c2cn(C(C)C)nc2-c2cc(Cl)cc(NS(C)(=O)=O)c2F)n1 [encorafenib]
Summary of the method: as §1

[3] = compound: COC(=O)[C@H](CCSC)NC(=O)C1=C(C=C(C=C1)NC[C@H](CS)N)C2=CC=CC=C2
Summary of the method: as §1

[4] = compound: COc1cc2nc(-c3cc(F)ccc3O)nc(N[C@@H]3CNC[C@H]3C(C)(C)O)c2cc1OC
Summary of the method: as §1

alisertib = compound: COc1cc(Nc2ncc3c(n2)-c2ccc(Cl)cc2C(c2c(F)cccc2OC)=NC3)ccc1C(=O)O [alisertib]
Summary of the method: as §1

gefitinib = compound: COc1cc2ncnc(Nc3ccc(F)c(Cl)c3)c2cc1OCCCN1CCOCC1 [gefitinib]
Summary of the method: as §1

Measured: log2 fold change

PHYKPL (UniProt Q8IUZ5)
inactive: alvocidib 0.051 | Tubastatin A 0.074 | [1] -0.006 | defactinib 0.032 | [2] -0.009 | encorafenib 0.115 | [3] -0.023 | [4] 0.026

PHF12 (UniProt Q96QT6)
inactive: Tubastatin A -0.26

PKP4 (UniProt Q99569)
inactive: alvocidib 0.095 | Tubastatin A -0.277 | [2] 0.042 | encorafenib -0.125 | [3] 0.114

PIGX isoform 2 (UniProt Q8TBF5)
inactive: alvocidib 0.089 | Tubastatin A -0.032 | [2] -0.062 | encorafenib 0.06 | [3] -0.117 | alisertib -0.128 | [4] -0.053 | gefitinib 0.22

PLEKHA3 (UniProt Q9HB20)
inactive: alvocidib 0.017 | Tubastatin A -0.079 | [2] 0.019 | alisertib -0.046 | gefitinib 0.269

PHACTR2 isoform 4 (UniProt O75167)
inactive: alvocidib -0.115 | Tubastatin A 0.106 | [1] 0.014 | [2] 0.199 | encorafenib -0.087 | [3] -0.085 | alisertib 0.031 | [4] 0.094 | gefitinib 0.031

PLEKHG2 (UniProt Q9H7P9)
inactive: alvocidib -0.095 | [1] 0.084 | [2] 0.141 | encorafenib -0.027 | [3] -0.13

PHF19 isoform 2 (UniProt Q5T6S3)
inactive: alvocidib -0.025 | defactinib 0.092 | encorafenib -0.081 | [3] -0.117

PIGH (UniProt Q14442)
inactive: alvocidib -0.026 | [1] -0.111 | defactinib 0.013 | [4] 0.03

PLAUR (UniProt Q03405)
inactive: alvocidib -0.01 | [1] 0.249 | [2] -0.046 | encorafenib 0.015 | [3] -0.057

PHLPP1 (UniProt O60346)
inactive: alvocidib 0.028 | Tubastatin A -0.053 | [1] -0.164 | defactinib -0.065 | [2] -0.088 | alisertib 0.026 | gefitinib -0.022

PIGW (UniProt Q7Z7B1)
inactive: Tubastatin A -0.018 | defactinib 0.008 | [2] -0.028 | alisertib -0.09 | gefitinib 0.061

PGM1 isoform 2 (UniProt P36871)
inactive: [1] -0.159 | [2] 0.055 | encorafenib -0.172 | [3] 0.196

PHOX2B (UniProt Q99453)
inactive: defactinib -0.078 | [2] -0.17 | encorafenib 0.055 | [3] 0.007 | alisertib 0.076 | gefitinib 0.032

PGM3 (UniProt D6RCQ8)
inactive: [4] -0.104

PHGDH, A0A286YFE1
inactive: [2] -0.19 | [4] -0.114

PHLDA2 (UniProt Q53GA4)
inactive: Tubastatin A -0.004 | [1] 0.198 | defactinib -0.128 | [2] 0.151

PLEKHA8 (UniProt Q96JA3)
inactive: Tubastatin A 0.234 | [2] -0.096 | encorafenib 0.355 | [3] -0.066 | alisertib -0.089 | gefitinib 0.064

PIGT, A0A1W2PP13
inactive: alisertib -0.112 | [4] 0.065 | gefitinib 0

PKLR (UniProt F8W6W2)
inactive: defactinib -0.128

PHLDB3 (UniProt Q6NSJ2)
inactive: [1] 0.127

PIGN (UniProt O95427)
inactive: Tubastatin A 0.091 | [1] 0.073 | defactinib -0.004 | [2] 0.076 | encorafenib 0.034 | [3] -0.01 | [4] 0.089

PITPNM1 (UniProt O00562)
inactive: Tubastatin A -0.063 | alisertib -0.028 | gefitinib 0.014

PLAU (UniProt P00749)
inactive: Tubastatin A -0.165 | [1] 0.049 | [2] -0.116 | encorafenib 0.056 | [3] -0.009 | alisertib -0.122 | [4] 0.336 | gefitinib 0.145

PIWIL4 (UniProt Q7Z3Z4)
inactive: alisertib -0.118 | gefitinib -0.054

PLCB4 isoform 4 (UniProt Q15147)
inactive: Tubastatin A 0.402 | [1] 0.206 | encorafenib 0.015 | [3] -0.061 | [4] -0.077

PLEK (UniProt P08567)
inactive: Tubastatin A 0.012 | [1] -0.025 | encorafenib -0.255 | [3] 0.106

PIK3AP1 (UniProt Q6ZUJ8)
inactive: Tubastatin A 0.123 | [2] 0.223 | encorafenib -0.176 | [3] 0.156

PIK3R3 (UniProt Q92569)
inactive: Tubastatin A 0.002 | alisertib -0.013 | gefitinib 0.121

PICALM (UniProt H0YCY1)
inactive: [1] -0.018

PKM (UniProt H3BTN5)
inactive: [1] 0.316 | defactinib -0.009 | encorafenib -0.005 | [3] -0.094 | [4] -0.055

PIAS2 (UniProt O75928)
inactive: Tubastatin A -0.092 | [1] 0.006 | defactinib -0.348 | [2] -0.002 | encorafenib 0.006 | [3] -0.041 | alisertib -0.021 | gefitinib -0.091

PIGM (UniProt Q9H3S5)
inactive: Tubastatin A 0.082 | [1] -0.344 | defactinib 0.03 | encorafenib 0.001 | [3] 0.041 | [4] 0.061

PIEZO2 isoform 4 (UniProt Q9H5I5)
inactive: [1] 0.001 | encorafenib -0.072 | [3] 0.037 | alisertib 0.014 | [4] -0.095 | gefitinib -0.072

PITX1 (UniProt P78337)
inactive: defactinib 0.006 | [2] 0.215 | encorafenib 0.117 | [3] 0.031

PLD6 (UniProt Q8N2A8)
inactive: [2] -0.1

2 consecutive records already listed, quoted:
PIEZO2 isoform 4 (UniProt Q9H5I5)
inactive: [1] 0.001 | encorafenib -0.072 | [3] 0.037 | alisertib 0.014 | [4] -0.095 | gefitinib -0.072

PITX1 (UniProt P78337)
inactive: defactinib 0.006 | [2] 0.215 | encorafenib 0.117 | [3] 0.031

(next part)

PHC1 (UniProt P78364)
inactive: defactinib 0.005 | [2] 0.184 | encorafenib 0.059 | [3] -0.062 | alisertib -0.017 | gefitinib -0.101

PHOSPHO2 (UniProt C9JD35)
inactive: encorafenib 0.018 | [3] -0.36

PHF19 (UniProt Q5T6S3)
inactive: Tubastatin A 0.027 | [1] 0.063 | alisertib 0.003 | gefitinib 0.078

PIDD1 (UniProt Q9HB75)
inactive: Tubastatin A -0.098 | [2] -0.107

PIGL (UniProt Q9Y2B2)
inactive: Tubastatin A -0.027 | [1] 0.095 | [2] 0.072 | encorafenib 0.011 | [3] 0.394 | [4] -0.087

PHF14 (UniProt O94880)
inactive: Tubastatin A 0.01 | defactinib -0.012 | [2] 0.02 | encorafenib -0.014 | [3] 0.1 | alisertib 0.044 | [4] -0.069 | gefitinib -0.042

PIK3C2A (UniProt O00443)
inactive: Tubastatin A -0.139 | [1] -0.019 | [2] 0.062 | encorafenib -0.13 | [3] 0 | alisertib 0.027 | [4] -0.035 | gefitinib -0.007

PIP5K1C isoform 3 (UniProt O60331)
inactive: Tubastatin A -0.025 | [1] -0.034 | [2] -0.074 | encorafenib -0.078 | [3] 0.015 | alisertib -0.008 | [4] 0.03 | gefitinib -0.092
